Test results reported in paper doi:10.1101/659573v1 (bioRxiv, 2019).

System: 8% mucin
Assay: Phage screening assay through mucin, sequencing of clones
Details: after three rounds of screening against 8% mucin; DNA sequencing of 13 clones

Substance | frequency among sequenced clones
NTGSPYE | 1/13
TVRTSAD | 4/13
